Data reported in paper PMC7819943, “Rice protein-binding microarrays: a tool to detect cis-acting elements near promoter regions in rice”.
The other results are listed elsewhere or left out.

By UniProt entry, the sequences of proteins in these tests, tags left out.
UniProt Q0JBA9, entry or part of it: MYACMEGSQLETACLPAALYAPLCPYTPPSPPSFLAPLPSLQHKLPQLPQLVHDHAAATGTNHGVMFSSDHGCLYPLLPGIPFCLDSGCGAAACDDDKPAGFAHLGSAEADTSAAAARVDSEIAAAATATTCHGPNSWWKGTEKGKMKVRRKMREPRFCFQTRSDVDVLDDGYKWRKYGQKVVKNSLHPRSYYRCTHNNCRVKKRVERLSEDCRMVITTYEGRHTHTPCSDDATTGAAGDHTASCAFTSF

Each sequence was assayed against OsWRKY34 (Oryza sativa, UniProt Q0JBA9 1-250) (assay: protein-binding microarray (RPBM); PBS, 2% BSA, 51.3 ng/ul salmon testes DNA, 50 uM zinc acetate, 200 nM TF, 25 C, 1 h; high values mean tight binding). Settings: protein: recombinant; tags: N-terminal polyhistidine and DsRed monomer fusion (pET32a); label: CyDye5-dUTP incorporated in the synthesized complementary strand; 3' TTTTT single-stranded linker to array surface; dsDNA, one strand shown.
Outline: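 Per-feature fluorescence intensity (arbitrary units), read on an Axon 4000B scanner, is the binding signal. Transcription factors carrying an N-terminal polyhistidine tag and DsRed fusion were expressed in E. coli BL21-CodonPlus and purified on Ni–NTA. A custom Agilent array, made double-stranded by primer extension with Cy5-dUTP and blocked with 2% BSA, was incubated with 200 nM protein in PBS, 2% BSA, salmon testes DNA and 50 µM zinc acetate at 25 °C for 1 h and then washed.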

Row | Sequence | binding signal
1 | CCCTTGGTCATATTCACCGCCGGAGCTCACCACCGATGTTCGGAGTCACCTAGTGCAG | 8680 fluorescence intensity (a.u.)
2 | TTCTTGGCTTGGCTCCTCTGGTGTTCTTGTGCTCTGGGTTCGGAGTCACCTAGTGCAG | 9970 fluorescence intensity (a.u.)
3 | ACATATTGTCGTCACTACATATATACGCAACCATGCATGCCGGAGTCACCTAGTGCAG | 10100 fluorescence intensity (a.u.)
4 | GGCCCTGAGCTCTCTCTTGCTGCTTCTTTTAATGGGTTTTCGGAGTCACCTAGTGCAG | 9680 fluorescence intensity (a.u.)
5 | CGTTCAGTTAATACGGTATAATTTTGTCCTATGGTTGAAACGGAGTCACCTAGTGCAG | 9310 fluorescence intensity (a.u.)
6 | TTCCGGTTCTATTGTCTTTGTCCTGTAGCTTCCAACACTCCGGAGTCACCTAGTGCAG | 15800 fluorescence intensity (a.u.)
7 | ATCCTATACTTGACATGAGCATTTGCATTTACGGGTAATTCGGAGTCACCTAGTGCAG | 9020 fluorescence intensity (a.u.)
8 | CTACAGGCTTGTTCAGATTGGTACCATTTTAAACCATACCCGGAGTCACCTAGTGCAG | 10100 fluorescence intensity (a.u.)
9 | TGCTGTAGGACCCATTTGACCTGGTTTTGCTAGATTAGGGCGGAGTCACCTAGTGCAG | 8320 fluorescence intensity (a.u.)
10 | GGCTTTGATTCCCGTCCCTATATAGCTCCACACCCACCACCGGAGTCACCTAGTGCAG | 13000 fluorescence intensity (a.u.)
11 | TTCGGTGTCCGGTCTGATTTTTTCTACTATGCTGCATAGTCGGAGTCACCTAGTGCAG | 8930 fluorescence intensity (a.u.)
12 | TGCATCATATCCAGTACTTTTTTACTTCCTCTCCGTTTAACGGAGTCACCTAGTGCAG | 12100 fluorescence intensity (a.u.)
13 | TTCACATGACTCAAAATTTTGGCTTCGCGCGCGCTAGTAACGGAGTCACCTAGTGCAG | 8420 fluorescence intensity (a.u.)
14 | AGTTGCTTACTACTCCCTCCGTTTCACAATGTAAGTCATTCGGAGTCACCTAGTGCAG | 9620 fluorescence intensity (a.u.)
15 | TTAAAATGCACACAACCGGACACACACAACCACACTCAAACGGAGTCACCTAGTGCAG | 8110 fluorescence intensity (a.u.)
16 | ATACTAGTCCATTCGAGTTGAAACGTTCAGTGAACAGCTACGGAGTCACCTAGTGCAG | 8030 fluorescence intensity (a.u.)
17 | CACCAACATGGCTAGGCCCAAGCCCAACTCGTGATCCAGTCGGAGTCACCTAGTGCAG | 8320 fluorescence intensity (a.u.)
18 | CTGTTCATGTCTTCTTGTTCTTGCCACAGCCAACAGCATGCGGAGTCACCTAGTGCAG | 8200 fluorescence intensity (a.u.)
19 | AGGCACCACATATGCACTCCTCGGTTGCTGTCAAGTGTCACGGAGTCACCTAGTGCAG | 8080 fluorescence intensity (a.u.)
20 | GATGATGTTTCCTGTCCTCCAACTTTCTACAGAATTTTGACGGAGTCACCTAGTGCAG | 8340 fluorescence intensity (a.u.)
21 | GGCGGCGCTCGTCATGCTCCAGTTCTTCACCGCCGGCGGCCGGAGTCACCTAGTGCAG | 8880 fluorescence intensity (a.u.)

Part of the list above, as a markdown table:

| Row | Sequence | binding signal |
| --- | --- | --- |
| 3 | ACATATTGTCGTCACTACATATATACGCAACCATGCATGCCGGAGTCACCTAGTGCAG | 10100 fluorescence intensity (a.u.) |
| 4 | GGCCCTGAGCTCTCTCTTGCTGCTTCTTTTAATGGGTTTTCGGAGTCACCTAGTGCAG | 9680 fluorescence intensity (a.u.) |

More entries

Row | Sequence | binding signal
22 | TCAAACTACTAACTTTTTCATCACATCAAAATTTTTCTACCGGAGTCACCTAGTGCAG | 9000 fluorescence intensity (a.u.)
23 | GTGTAGCCCATCACGTAAGCCTCACCTTTGACCGGCCGTACGGAGTCACCTAGTGCAG | 8510 fluorescence intensity (a.u.)
24 | GAAGATTAGGGTTTCGTCCTGGTTACCAGCCGTCGCCTGTCGGAGTCACCTAGTGCAG | 9300 fluorescence intensity (a.u.)
25 | CGTTTGACCACTCGTCTTATTCAATTTTTTTTTGCAAATGCGGAGTCACCTAGTGCAG | 11400 fluorescence intensity (a.u.)
26 | TTTTACACTTCAATTCCTATCAGATTCCTGTGTTTTTCCTCGGAGTCACCTAGTGCAG | 10100 fluorescence intensity (a.u.)
27 | TGTATTTTTGTGTCTTACATGTAAGGTCGTAGCTCAATTCCGGAGTCACCTAGTGCAG | 10300 fluorescence intensity (a.u.)
28 | CAGGCTGTTCCTCTACCTCCCGTGGGCCATAGCCTCCGCGCGGAGTCACCTAGTGCAG | 10100 fluorescence intensity (a.u.)
29 | TATTTTCCGTGTGTACCGTTCCGGTTATCAATACCAGCGCCGGAGTCACCTAGTGCAG | 8380 fluorescence intensity (a.u.)
30 | ATCCACCTCGCTTCGCTAGCTAGCTGCTCTCCCCACCTATCGGAGTCACCTAGTGCAG | 8080 fluorescence intensity (a.u.)
31 | TTTGTGTATTATTTGTATTGTGTTTGTGAATTCAATAAATCGGAGTCACCTAGTGCAG | 8800 fluorescence intensity (a.u.)
32 | TCCTCTACTGGTTCTACGTCTTCTCATAATCAACCCAAATCGGAGTCACCTAGTGCAG | 11700 fluorescence intensity (a.u.)
33 | GATCGATCGATCCCCACTTTTCCCATCCACCAATCCAAACCGGAGTCACCTAGTGCAG | 8240 fluorescence intensity (a.u.)
34 | ACGACCGTCCACGCCTCGCGCCACCTCTCGTCCGCCAAACCGGAGTCACCTAGTGCAG | 11800 fluorescence intensity (a.u.)
35 | TAGTTAAAGCCACGTTCTTAATTTCTCCTTTTGCTTTTGGCGGAGTCACCTAGTGCAG | 9170 fluorescence intensity (a.u.)
36 | GCTGACTTCATCTTCATTTTAATATATCTCAAACACCACGCGGAGTCACCTAGTGCAG | 10200 fluorescence intensity (a.u.)
37 | ACCCGCGCCACCGCCGCTGCTTTCCCCTATGCGTTGATAGCGGAGTCACCTAGTGCAG | 8090 fluorescence intensity (a.u.)
38 | TCGCTCACACTCTTCCTTCCACTCTCCCAATACTCACTCACGGAGTCACCTAGTGCAG | 8370 fluorescence intensity (a.u.)
39 | GCGCGCGCGGGTGTTCTCTTCGTGGCGAGATCGGCGTTGACGGAGTCACCTAGTGCAG | 8110 fluorescence intensity (a.u.)
40 | TTTTTTCCCTTATCATATCAAGCAGCAAGCTCTTTTACCGCGGAGTCACCTAGTGCAG | 8020 fluorescence intensity (a.u.)
41 | GGAGATGACCCCTTGTTGTTTGTATGATACTTAAATTGTTCGGAGTCACCTAGTGCAG | 11200 fluorescence intensity (a.u.)
42 | CAAATTTGGATTCGTTTTGTTCGTTTCCAGCTCACCCTGTCGGAGTCACCTAGTGCAG | 9480 fluorescence intensity (a.u.)
